{
  "sequences": {"note": "Amino acid sequences for entries named in this document (tags omitted). A change or cut given only in a name is not applied to a line headed by its entry.", "UniProt O54943": "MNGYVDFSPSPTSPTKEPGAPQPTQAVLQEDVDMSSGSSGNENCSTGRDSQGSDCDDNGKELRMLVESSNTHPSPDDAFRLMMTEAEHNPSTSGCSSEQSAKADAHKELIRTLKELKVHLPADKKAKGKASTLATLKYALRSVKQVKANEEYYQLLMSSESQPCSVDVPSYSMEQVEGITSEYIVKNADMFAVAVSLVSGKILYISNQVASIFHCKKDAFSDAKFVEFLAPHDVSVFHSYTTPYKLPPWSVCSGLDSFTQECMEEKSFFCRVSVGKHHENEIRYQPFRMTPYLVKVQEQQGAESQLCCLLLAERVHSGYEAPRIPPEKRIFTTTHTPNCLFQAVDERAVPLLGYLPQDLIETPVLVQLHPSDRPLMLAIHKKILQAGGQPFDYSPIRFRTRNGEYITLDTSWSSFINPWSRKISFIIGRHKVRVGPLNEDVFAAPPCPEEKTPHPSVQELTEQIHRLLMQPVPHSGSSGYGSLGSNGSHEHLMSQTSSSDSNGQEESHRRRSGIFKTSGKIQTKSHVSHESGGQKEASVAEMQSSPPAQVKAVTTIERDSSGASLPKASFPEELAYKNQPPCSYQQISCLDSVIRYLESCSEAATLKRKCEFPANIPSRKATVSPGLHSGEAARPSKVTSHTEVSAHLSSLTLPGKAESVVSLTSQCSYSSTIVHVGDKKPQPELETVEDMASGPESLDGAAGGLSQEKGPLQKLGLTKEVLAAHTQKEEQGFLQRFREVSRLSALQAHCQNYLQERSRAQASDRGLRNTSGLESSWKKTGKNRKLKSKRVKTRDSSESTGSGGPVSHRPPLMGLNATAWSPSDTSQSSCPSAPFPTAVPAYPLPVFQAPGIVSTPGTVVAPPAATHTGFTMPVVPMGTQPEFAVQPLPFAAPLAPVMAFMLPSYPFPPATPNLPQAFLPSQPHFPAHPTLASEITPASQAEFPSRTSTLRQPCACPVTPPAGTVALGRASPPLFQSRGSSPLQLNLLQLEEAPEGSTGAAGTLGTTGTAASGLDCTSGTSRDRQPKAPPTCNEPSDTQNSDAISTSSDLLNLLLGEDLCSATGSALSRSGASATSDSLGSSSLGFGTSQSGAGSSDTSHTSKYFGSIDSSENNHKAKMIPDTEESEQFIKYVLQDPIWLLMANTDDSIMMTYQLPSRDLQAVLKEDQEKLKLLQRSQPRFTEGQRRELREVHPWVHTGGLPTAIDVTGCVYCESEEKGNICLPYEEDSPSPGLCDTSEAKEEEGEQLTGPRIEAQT", "UniProt Q9DC28": "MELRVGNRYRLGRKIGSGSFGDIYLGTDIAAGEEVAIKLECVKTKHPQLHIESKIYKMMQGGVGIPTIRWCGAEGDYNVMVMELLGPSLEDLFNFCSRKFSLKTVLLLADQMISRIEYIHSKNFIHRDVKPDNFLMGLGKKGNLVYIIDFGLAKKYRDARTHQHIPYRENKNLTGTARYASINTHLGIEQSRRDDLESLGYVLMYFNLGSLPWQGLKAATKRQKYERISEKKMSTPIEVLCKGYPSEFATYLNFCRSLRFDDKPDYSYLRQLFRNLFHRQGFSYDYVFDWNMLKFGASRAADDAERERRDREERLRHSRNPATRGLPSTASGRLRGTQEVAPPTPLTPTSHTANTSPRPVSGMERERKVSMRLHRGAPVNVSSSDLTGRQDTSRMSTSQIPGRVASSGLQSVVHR", "UniProt Q9WTL8": "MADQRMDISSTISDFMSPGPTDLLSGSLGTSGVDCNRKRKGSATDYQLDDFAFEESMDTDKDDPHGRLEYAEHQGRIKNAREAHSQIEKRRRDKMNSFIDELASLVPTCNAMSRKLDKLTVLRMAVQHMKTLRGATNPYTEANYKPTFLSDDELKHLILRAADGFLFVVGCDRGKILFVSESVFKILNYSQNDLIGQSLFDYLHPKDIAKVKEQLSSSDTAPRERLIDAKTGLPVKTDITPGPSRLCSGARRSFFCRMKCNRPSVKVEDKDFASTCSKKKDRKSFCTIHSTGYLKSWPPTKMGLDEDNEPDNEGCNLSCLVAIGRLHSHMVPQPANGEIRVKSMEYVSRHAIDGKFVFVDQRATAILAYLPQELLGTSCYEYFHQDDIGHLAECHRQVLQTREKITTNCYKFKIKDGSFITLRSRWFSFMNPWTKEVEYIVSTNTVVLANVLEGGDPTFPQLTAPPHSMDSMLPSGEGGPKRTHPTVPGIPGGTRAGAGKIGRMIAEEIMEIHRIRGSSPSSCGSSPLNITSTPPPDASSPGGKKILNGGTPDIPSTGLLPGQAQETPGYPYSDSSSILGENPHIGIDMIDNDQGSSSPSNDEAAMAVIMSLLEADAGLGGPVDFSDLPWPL"},
  "source": "paper PMC9950529",
  "key": {"[1]": {"target": "PER2 (mouse (endogenous in mouse liver)) (UniProt O54943)", "test": "co-sedimentation; 10-30% glycerol gradient (25 mM Tris pH 8.0, 100 mM NaCl, 2 mM DTT), SW60 54,000 rpm, 6 h, 4 °C; mouse liver nuclear extracts of ZT0, ZT2, ZT6, ZT12, ZT16, ZT19 mixed with reference proteins; fractions analysed by Western blot"}, "[2]": {"target": "PER2 (mouse (endogenous in mouse liver)) (UniProt O54943)", "test": "SEC; Superose 6 Increase 10/300 GL, room temperature, 10 mM Hepes pH 7.9, 200 mM KCl, 1.5 mM MgCl2, 0.1 mM EGTA, 0.1 mM EDTA, 20% glycerol; mouse liver nuclear extracts of ZT0, ZT2, ZT6, ZT12, ZT16, ZT19 after ultracentrifugation; fractions analysed by Western blot"}, "[3]": {"target": "CK1δ (mouse (endogenous in mouse liver)) (UniProt Q9DC28)", "test": "co-sedimentation; 10-30% glycerol gradient (25 mM Tris pH 8.0, 100 mM NaCl, 2 mM DTT), SW60 54,000 rpm, 6 h, 4 °C; mouse liver nuclear extracts of ZT0, ZT2, ZT6, ZT12, ZT16, ZT19 mixed with reference proteins; fractions analysed by Western blot"}, "[4]": {"target": "T1, CLOCK (mouse (endogenous in mouse liver)) (UniProt O08785)", "T1 sequence": "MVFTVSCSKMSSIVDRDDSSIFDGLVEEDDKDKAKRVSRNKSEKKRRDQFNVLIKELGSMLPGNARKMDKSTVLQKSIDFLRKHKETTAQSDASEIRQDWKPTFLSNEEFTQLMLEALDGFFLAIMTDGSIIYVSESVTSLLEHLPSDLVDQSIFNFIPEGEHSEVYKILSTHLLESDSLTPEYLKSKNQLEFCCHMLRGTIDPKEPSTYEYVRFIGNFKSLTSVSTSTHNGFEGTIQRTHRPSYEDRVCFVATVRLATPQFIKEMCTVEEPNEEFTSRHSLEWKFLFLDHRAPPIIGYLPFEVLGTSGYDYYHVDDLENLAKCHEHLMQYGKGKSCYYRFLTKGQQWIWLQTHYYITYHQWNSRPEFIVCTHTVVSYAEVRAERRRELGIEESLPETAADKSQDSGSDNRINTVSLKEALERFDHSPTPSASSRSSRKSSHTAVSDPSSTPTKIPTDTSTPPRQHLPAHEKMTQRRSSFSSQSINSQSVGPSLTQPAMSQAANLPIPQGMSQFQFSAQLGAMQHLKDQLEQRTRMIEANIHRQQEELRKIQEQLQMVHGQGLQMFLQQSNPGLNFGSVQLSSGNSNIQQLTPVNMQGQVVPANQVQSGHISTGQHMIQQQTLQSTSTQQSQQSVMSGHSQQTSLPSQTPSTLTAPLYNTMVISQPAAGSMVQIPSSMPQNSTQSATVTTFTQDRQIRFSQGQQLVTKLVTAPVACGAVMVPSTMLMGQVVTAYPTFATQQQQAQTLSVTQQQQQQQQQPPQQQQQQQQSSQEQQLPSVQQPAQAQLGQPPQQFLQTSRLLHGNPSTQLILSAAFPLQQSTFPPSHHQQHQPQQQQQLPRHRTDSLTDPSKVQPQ", "test": "co-sedimentation; 10-30% glycerol gradient (25 mM Tris pH 8.0, 100 mM NaCl, 2 mM DTT), SW60 54,000 rpm, 6 h, 4 °C; mouse liver nuclear extracts of ZT0, ZT2, ZT6, ZT12, ZT16, ZT19 mixed with reference proteins; fractions analysed by Western blot"}, "[5]": {"target": "CK1δ (mouse (endogenous in mouse liver)) (UniProt Q9DC28)", "test": "SEC; Superose 6 Increase 10/300 GL, room temperature, 10 mM Hepes pH 7.9, 200 mM KCl, 1.5 mM MgCl2, 0.1 mM EGTA, 0.1 mM EDTA, 20% glycerol; mouse liver nuclear extracts of ZT0, ZT2, ZT6, ZT12, ZT16, ZT19 after ultracentrifugation; fractions analysed by Western blot"}, "[6]": {"target": "T1, CLOCK (mouse (endogenous in mouse liver))", "test": "SEC; Superose 6 Increase 10/300 GL, room temperature, 10 mM Hepes pH 7.9, 200 mM KCl, 1.5 mM MgCl2, 0.1 mM EGTA, 0.1 mM EDTA, 20% glycerol; mouse liver nuclear extracts of ZT0, ZT2, ZT6, ZT12, ZT16, ZT19 after ultracentrifugation; fractions analysed by Western blot"}},
  "note": "Results are given in words; binding and its absence hold for the method and conditions named. For part of these data: In cells and extracts the contact can be indirect. Some binding calls cover weakened binding; strength is not graded here.",
  "data": [
    {"substance": "CK1δ (from UniProt Q9DC28 1-415) (enzyme)", "values": [
      {"measurement": "binding", "setting": "[1]", "value": "binds"},
      {"measurement": "binding", "setting": "[2]", "value": "binds"}
    ]},
    {"substance": "BMAL1 (from UniProt Q9WTL8 1-632)", "values": [
      {"measurement": "binding", "setting": "[3]", "value": "no binding"},
      {"measurement": "binding", "setting": "[4]", "value": "binds"},
      {"measurement": "binding", "setting": "[5]", "value": "no binding"},
      {"measurement": "binding", "setting": "[6]", "value": "binds"}
    ]}
  ]
}
